From PMC11597210, “A Comprehensive Evaluation of a Coumarin Derivative and Its Corresponding Palladium Complex as Potential Therapeutic Agents in the Treatment of Gynecological Cancers: Synthesis, Characterization, and Cytotoxicity” (Pharmaceutics, 2024)

Key:
Format in all cases: cell-based
[1] = tested on: A2780 (human ovarian carcinoma cells); experiment: MTT viability assay, 72 h; conditions: A2780, 72 h, mean ± SD
Procedure: (§1) HeLa (human cervical adenocarcinoma cells), A2780 (human ovarian carcinoma cells), MCF7 (human breast adenocarcinoma cells), and HCT116 (human colorectal carcinoma cells) were purchased from American Type Culture Collection (ATCC, Rockville, MD, USA). HeLa, MCF-7, and HCT116 cells were cultivated in HEPES-buffered RPMI-1640, while A2780 cells were cultivated in DMEM. The media were supplemented with 10% heat-inactivated FBS and antibiotics (100 units/mL penicillin and 100 μg/mL streptomycin). The cells were grown at 37 °C in a humidified atmosphere with 5% CO2. For the viability assays, HeLa (3 × 10^3/well), A2780 (8 × 10^3/well), MCF7 (7 × 10^3/well), and HCT116 (6 × 10^3/well) cells were seeded in adherent flat-bottom 96-well plates. For the flow cytometric analyses, HeLa cells were seeded at 8 × 10^4 in 6-well plates.
(§2) The cells were treated with a range of CL, CC, and cisplatin concentrations for 72 h. At the end of the treatment, the cell viability was determined using MTT and crystal violet assays, as previously described. PECs were seeded at a density of 1.8 × 10^5 cells/well in 96-well plates, and two hours later, non-adherent cells were removed by washing the wells with PBS. The remaining adherent cells were treated the same way as the tumor cells. The PEC viability was estimated after 72 h of treatment using the CV assay only.

[2] = tested on: HeLa (human cervical adenocarcinoma cells); experiment: MTT viability assay, 72 h; conditions: mean ± SD of three experiments
Procedure: as §1, §2

[3] = tested on: A2780 (human ovarian carcinoma cells); experiment: Crystal violet (CV) viability assay, 72 h; conditions: A2780, 72 h, mean ± SD
Procedure: as §1, §2

[4] = tested on: HeLa (human cervical adenocarcinoma cells); experiment: Crystal violet (CV) viability assay, 72 h; conditions: rounded IC50 used as treatment dose, assay not stated (matches CV), read-out: IC50 values on HeLa cells as used for flow cytometry treatment
Procedure: as §1, §2

## N.N.[Cl][Pt][Cl] [Cisplatin, cisplatin, reference compound]
[1]
  IC50: 2800 ± 200 nM
[2]
  IC50: 500 nM
[3]
  IC50: 2300 ± 200 nM
[4]
  IC50: 500 nM
